Measured values taken from paper PMC7926307.

The chains behind the UniProt entries cited, without tags or fusion partners. Residues count along the entry.
UniProt Q9UBS4, residues 23-358: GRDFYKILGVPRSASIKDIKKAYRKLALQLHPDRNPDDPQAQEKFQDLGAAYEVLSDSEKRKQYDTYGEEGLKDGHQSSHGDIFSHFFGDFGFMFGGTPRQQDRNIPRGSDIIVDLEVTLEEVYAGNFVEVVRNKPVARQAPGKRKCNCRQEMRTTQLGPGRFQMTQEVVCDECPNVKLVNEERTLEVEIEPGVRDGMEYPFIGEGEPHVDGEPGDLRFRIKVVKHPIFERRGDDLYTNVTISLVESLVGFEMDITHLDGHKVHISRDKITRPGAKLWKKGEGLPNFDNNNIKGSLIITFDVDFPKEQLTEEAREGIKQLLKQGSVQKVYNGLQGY
UniProt P11021, residues 19-654: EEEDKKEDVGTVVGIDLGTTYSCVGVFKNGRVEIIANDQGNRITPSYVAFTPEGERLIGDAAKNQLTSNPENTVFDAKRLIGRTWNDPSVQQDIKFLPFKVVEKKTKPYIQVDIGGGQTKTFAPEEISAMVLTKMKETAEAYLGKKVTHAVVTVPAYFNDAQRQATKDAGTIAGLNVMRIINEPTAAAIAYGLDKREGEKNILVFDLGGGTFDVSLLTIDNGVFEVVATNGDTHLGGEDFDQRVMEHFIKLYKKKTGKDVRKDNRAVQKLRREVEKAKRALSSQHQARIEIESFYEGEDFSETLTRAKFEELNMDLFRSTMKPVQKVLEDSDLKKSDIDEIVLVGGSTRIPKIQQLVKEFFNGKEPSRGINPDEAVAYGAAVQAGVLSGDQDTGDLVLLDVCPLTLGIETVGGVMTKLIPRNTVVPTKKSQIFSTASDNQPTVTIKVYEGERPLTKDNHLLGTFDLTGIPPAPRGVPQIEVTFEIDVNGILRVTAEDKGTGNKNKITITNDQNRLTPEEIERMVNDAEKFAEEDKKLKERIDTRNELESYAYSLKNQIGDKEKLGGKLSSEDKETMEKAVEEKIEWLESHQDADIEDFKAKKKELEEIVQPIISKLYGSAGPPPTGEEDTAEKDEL

T1: EDEM3 wild type, HA-tagged (murine EDEM3) (mouse) (UniProt Q2HXL6)
T1 sequence: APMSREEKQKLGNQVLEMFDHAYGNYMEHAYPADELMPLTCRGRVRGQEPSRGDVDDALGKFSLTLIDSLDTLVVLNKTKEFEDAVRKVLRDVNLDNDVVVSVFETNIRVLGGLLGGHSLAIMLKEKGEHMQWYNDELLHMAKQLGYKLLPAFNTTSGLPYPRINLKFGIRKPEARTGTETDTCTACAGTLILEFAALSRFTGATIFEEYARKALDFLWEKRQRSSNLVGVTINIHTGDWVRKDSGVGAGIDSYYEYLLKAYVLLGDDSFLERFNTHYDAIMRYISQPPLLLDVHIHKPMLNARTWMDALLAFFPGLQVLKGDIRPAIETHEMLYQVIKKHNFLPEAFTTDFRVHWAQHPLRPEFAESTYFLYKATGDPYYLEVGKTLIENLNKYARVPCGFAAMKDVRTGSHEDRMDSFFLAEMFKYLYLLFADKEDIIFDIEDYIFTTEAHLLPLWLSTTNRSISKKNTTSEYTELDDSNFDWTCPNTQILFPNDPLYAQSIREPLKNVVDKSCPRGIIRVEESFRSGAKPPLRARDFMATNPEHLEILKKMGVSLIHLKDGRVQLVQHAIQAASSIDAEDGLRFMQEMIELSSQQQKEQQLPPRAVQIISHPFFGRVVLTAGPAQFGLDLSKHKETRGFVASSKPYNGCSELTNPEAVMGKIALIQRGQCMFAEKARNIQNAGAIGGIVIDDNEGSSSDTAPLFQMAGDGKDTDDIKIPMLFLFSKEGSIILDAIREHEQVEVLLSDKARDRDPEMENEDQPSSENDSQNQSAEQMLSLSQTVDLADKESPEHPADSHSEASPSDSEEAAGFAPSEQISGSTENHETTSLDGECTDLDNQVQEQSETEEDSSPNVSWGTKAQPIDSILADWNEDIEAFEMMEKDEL


molecular target: T1, EDEM3 wild type, HA-tagged (murine EDEM3) (mouse); assay: affinity purification with mass spectrometry; WT EDEM3 expressed in EDEM3-KO cells, digitonin lysis buffer, immunoprecipitated with anti-EDEM3 antibodies; co-precipitated proteins separated by SDS-PAGE, trypsinized, LC-MS/MS; spectral count ratios of sample/control

binding	Molecule
binds	DNAJB11 (from UniProt Q9UBS4 23-358)
binds	HSPA5/BiP (from UniProt P11021 19-654)
binds	PRDX4 (protein, UniProt Q13162 38-271) WETEERPRTREEECHFYAGGQVYPGEASRVSVADHSLHLSKAKISKPAPYWEGTAVIDGEFKELKLTDYRGKYLVFFFYPLDFTFVCPTEIIAFGDRLEEFRSINTEVVACSVDSQFTHLAWINTPRRQGGLGPIRIPLLSDLTHQISKDYGVYLEDSGHTLRGLFIIDDKGILRQITLNDLPVGRSVDETLRLVQAFQYTDKHGEVCPAGWKPGSETIIPDPAGKLKYFDKLN

These are yes or no findings as the source states them, for the method shown. In cells and extracts the contact can be indirect. A yes stands for co-enrichment or nearness to the bait. Other partners may have been found. Tags and fused reporters may be left off the sequences shown.
